Measurements: doi:10.1101/2021.04.23.441157
No constants are given. Whether binding was seen depends on the method and setting. Binding seen in cells or lysates may run through a third protein. A result given as binding can be weak or reduced; the word gives no strength.

Biological target: T1, Cdc12 with primary sequence derived from S. cerevisiae (S. cerevisiae) (UniProt P32468)
T1 sequence: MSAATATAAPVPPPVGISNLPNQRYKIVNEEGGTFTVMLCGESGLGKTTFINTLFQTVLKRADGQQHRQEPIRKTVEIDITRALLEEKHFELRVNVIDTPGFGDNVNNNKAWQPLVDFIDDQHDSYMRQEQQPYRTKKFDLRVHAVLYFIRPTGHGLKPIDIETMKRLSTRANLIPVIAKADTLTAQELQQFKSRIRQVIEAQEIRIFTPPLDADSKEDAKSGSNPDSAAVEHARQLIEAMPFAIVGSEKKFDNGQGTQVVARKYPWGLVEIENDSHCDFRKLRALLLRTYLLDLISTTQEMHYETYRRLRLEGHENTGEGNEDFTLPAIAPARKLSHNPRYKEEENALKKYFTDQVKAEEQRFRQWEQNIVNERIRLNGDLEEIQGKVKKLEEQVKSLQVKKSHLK
Test: co-purification on cobalt resin + negative-stain electron microscopy

Row | binding | Substance
1 | binds | Ashbya gossypii Cdc11b
2 | binds | Ashbya gossypii Cdc11a
